Reference: PubChem BioAssay AID2685 (National Center for Advancing Translational Sciences (NCATS), 2010)
The list shows a part of the results. These are further read-outs of the screen, such as a control signal, another cell line or another target. No call is given for them. Most of these compounds were active or inconclusive in the main read-out, so they are no random draw. Words in brackets tell the shape of the fitted curve; partial curves, single points and poor fits give uncertain potencies.

Assay: qHTS Assay for Lipid Storage Modulators in Drosophila S3 Cells;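 as to cell number change: cells counted by Cell Tracker Red CMTPX staining in the red channel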
Settings: BODIPY lipid droplet fluorescence, 18-24 h; for cell number change: measured here: cell count max response, cells fed with added oleic acid
Method in brief: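 Laser-scanning cytometry quantifies lipid droplet accumulation (500–530 nm total intensity; droplet/cell object ratio) in oleic acid-fed (400 uM added) Drosophila S3 cells treated with a concentration series. 20 uM Triacsin C defined 100% inhibition.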

[1] = measured here: lipid fluorescence (Fed channel) AC50, cells fed with added oleic acid
[2] = measured here: cell number channel AC50, cells fed with added oleic acid

Structure (SMILES) | cell number change [%] | AC50 [1] | AC50 [2]
CCCNC(=O)COC(=O)CCC(=O)c1ccc(F)cc1 | 7.89 | 23.1 µM [falling, single point] | –
CCOC(=O)Cn1c(-c2ccc(OC)cc2)c(-c2ccc(OC)cc2)nnc1=O | -32 | – | 11.6 µM [falling, partial curve]
O=C(C1=C(O)C(=O)N(c2ncccn2)C1c1cccc(Cl)c1)c1ccco1 (stereo not drawn) | – | 4.61 µM [falling, single point] | –
COc1cccc(-n2nnnc2SCC(=O)NC2CCCCC2)c1 | 264 | 29.1 µM [falling, single point] | –
CC1CCC2(CC1)NC(=O)N(CC(=O)Nc1cccc(S(=O)(=O)N3CCCC3)c1)C2=O (stereo not drawn) | -23.7 | – | –
O=C(CNS(=O)(=O)c1ccccc1F)Nc1ccc(N2CCOCC2)cc1 | 46.3 | 29.1 µM [rising, single point] | 29.1 µM [rising, single point]
O=C(C1CC(c2ccccc2O)=NO1)N1CCCC1 (stereo not drawn) | 2.43 | 29.1 µM [falling, single point] | –
O=C(Nc1ccc2ncccc2c1)c1ccccc1Br | 10.7 | – | –
COc1ccc(C(=O)NCCn2nc(C)cc2C)cc1OC1CCN(C(C)=O)CC1 | 0.521 | 8.2 µM [rising, partial curve] | –
O=C(CNCCC1=CCCCC1)Nc1ccccc1N1CCCCCC1 | -21.7 | – | –
Cc1ccc(S(=O)(=O)N2CCN(C(=O)c3ccc(S(=O)(=O)N4CCCC4)cc3)CC2)cc1 | -16.7 | 2.59 µM [falling, partial curve] | –
O=C(O)CCc1ccc(-c2ccc(Br)cc2)n1CC(=O)O | -62 | – | –
CCS(=O)(=O)N1CCC(C(=O)NCCc2ccc(C)cc2)CC1 | -164 | 6.51 µM [falling, partial curve] | 0.461 µM [falling, full curve]
NC(N)=N/N=C/c1ccccc1 | -19.3 | 6.51 µM [falling, single point] | 3.26 µM [falling, single point]
CCOc1ccccc1-c1nc2c([nH]1)c(=O)n(C)c(=O)n2C | 10.7 | – | –
COC(=O)c1ccccc1S(=O)(=O)Nc1ccc2cn[nH]c2c1 | -12 | 0.058 µM [rising, full curve, poor fit] | –
Cc1cccc(OCCNC(=S)NC(=O)c2cccnc2)c1 | 8.79 | 6.51 µM [rising, partial curve] | –
COC(CN(C(=O)CCl)C(C(=O)NC1CCCCC1)c1ccccc1C)OC (stereo not drawn) | -20.8 | 9.2 µM [falling, partial curve, poor fit] | –
CCN1C(=O)C2(C(C#N)=C(N)Oc3cc(C)oc(=O)c32)c2ccccc21 (stereo not drawn) | 16.4 | 18.4 µM [rising, single point] | –
COC(=O)c1ccc(CN2CCCC(C(=O)c3ccccc3OC)C2)cc1 (stereo not drawn) | 6.32 | 5.8 µM [falling, single point] | –

Structure (SMILES) | cell number change [%] | AC50 [1] | AC50 [2]
Cc1ccc(SCc2nc3ccccc3n2CC(=O)Nc2ccccc2)cc1 | -11.1 | – | –
CCCN1CCN(C(=S)Nc2sc(CC)cc2C(=O)OC)CC1 | -5.11 | 32.6 µM [falling, single point] | –
CC(C)C(C)(C#N)NC(=O)CSc1nc(C2CCCCC2)n(-c2ccccc2)n1 (stereo not drawn) | – | – | 0.651 µM [falling, single point]
COc1cc(/C=N/NC(N)=S)ccc1OCC(=O)Nc1ccc(C)c(C)c1 | -39.1 | 0.731 µM [rising, full curve] | 16.4 µM [falling, single point]
CCN(CC)c1ccc(NS(=O)(=O)c2ccc(OC)cc2)cc1 | -4.04 | – | 0.082 µM [falling, full curve, poor fit]
Cc1ccc(-c2nc3ncccc3o2)cc1NC(=O)c1cccnc1 | -33.5 | – | 29.1 µM [falling, single point]
c1ccc2c(c1)oc1c(Nc3ccc4c(c3)OCO4)ncnc12 | -22 | – | –
CCSc1nnc(NC(=O)c2cccc(S(=O)(=O)N(C)c3ccccc3)c2)s1 | 33.4 | 20.6 µM [rising, partial curve] | 18.4 µM [rising, single point]
CC1Cc2ccccc2N1C(=O)CSc1nnc(CNc2ccccc2)o1 (stereo not drawn) | – | 0.517 µM [rising, full curve] | 3.26 µM [rising, partial curve, poor fit]
CCOc1ccccc1CNS(=O)(=O)c1ccc2c(c1)oc(=O)n2C | -0.816 | 0.13 µM [falling, full curve, poor fit] | –
C/C(CC(=O)NC1CCCCC1)=N\NC(=O)c1ccccc1C | -5.26 | – | –
Cc1ccc(OCC(=O)NNC(=O)CSc2nnc(-c3ccc(C)cc3)n2C)cc1 | -31.4 | 3.26 µM [falling, partial curve, poor fit] | 0.731 µM [rising, partial curve, poor fit]
CCCn1c(N)c(C(=O)CSc2nc3ccccc3c(=O)n2-c2ccc(OC)cc2)c(=O)[nH]c1=O | 12.2 | 29.1 µM [rising, single point] | –
O=C(O)c1ccc(/C=N/NC(=O)c2ccc(Br)cc2)cc1 | – | 0.58 µM [falling, single point] | 0.82 µM [falling, single point]
CCc1noc(C)c1C(=O)Oc1ccc(N(C)S(=O)(=O)c2ccccc2)cc1 | -35.3 | – | 29.1 µM [falling, single point]
COc1ccccc1NC(=O)CSc1nnc(Cc2cccn2C)n1-c1ccc(F)cc1 | 13.5 | 6.51 µM [rising, partial curve, poor fit] | –
Cc1ccc(C(=O)/C=C\C(=O)c2ccc(C)cc2)cc1 | -57.3 | 18.4 µM [falling, single point] | 16.4 µM [falling, single point]
O=C(N/N=C/c1ccccn1)c1ccc(NC(=O)c2ccccc2Cl)cc1 | -13.2 | 4.47 µM [rising, full curve, poor fit] | –
Cc1ccc(NC(=O)COC(=O)C2CC2)cc1Cl | -4.2 | 0.103 µM [falling, full curve, poor fit] | 0.13 µM [falling, full curve, poor fit]
O=C(NCc1ccccc1)C1CC(=O)N(c2ccc(OCC(=O)N3CCOCC3)cc2)C1 (stereo not drawn) | 25 | – | 1.64 µM [rising, full curve, poor fit]

Record cards, from the list above. Order of values: cell number change [%]	AC50 [1]	AC50 [2]
CCCN1CCN(C(=S)Nc2sc(CC)cc2C(=O)OC)CC1 reads -5.11	32.6 µM [falling, single point]	–
COc1cc(/C=N/NC(N)=S)ccc1OCC(=O)Nc1ccc(C)c(C)c1 reads -39.1	0.731 µM [rising, full curve]	16.4 µM [falling, single point]
COc1ccccc1NC(=O)CSc1nnc(Cc2cccn2C)n1-c1ccc(F)cc1 reads 13.5	6.51 µM [rising, partial curve, poor fit]	–

(listing goes on)

Structure (SMILES) | cell number change [%] | AC50 [1] | AC50 [2]
Cc1ccc(CNC(=O)CN2C(=O)NC(C)(c3ccccc3Cl)C2=O)cc1 (stereo not drawn) | – | 6.51 µM [rising, single point] | 6.51 µM [rising, single point]
COc1cccc(OCCNC(=O)Nc2cc(F)c(F)cc2Cl)c1 | – | 0.116 µM [falling, partial curve, poor fit] | –
COc1cc(OC)c(C(=O)NC23CC4CC(CC(C4)C2)C3)cc1OC | -42.1 | – | 18.4 µM [falling, single point]
NNc1ccc(Cc2ccc(Cl)cc2Cl)nn1 | -0.261 | – | 6.51 µM [falling, single point]
Cc1sc2ncnc(SCC(=O)NC(=O)NCc3ccco3)c2c1C | 55.5 | – | 20.6 µM [rising, single point]
O=C(Nc1ccccc1C(=O)Nc1ccc2c(c1)OCO2)c1cccs1 | – | 0.517 µM [rising, full curve] | 0.231 µM [rising, full curve]
COC(=O)c1nnn(CC(=O)NC(=O)Nc2cccc(Cl)c2C)c1C(=O)OC | – | 0.461 µM [rising, single point] | –
CCOC(=O)c1cnc2nc(C)[nH]n2c1=O | -6.96 | 0.00411 µM [falling, full curve, poor fit] | –
COc1ccc(Cl)cc1C(=O)CSc1nc(N)cc(N)n1 | 20.4 | 0.731 µM [rising, full curve] | 1.84 µM [rising, full curve, poor fit]
COC(=O)N/N=C/c1cn(Cc2ccc(Cl)cc2Cl)c2ccccc12 | -25.1 | 3.66 µM [falling, partial curve] | –
O=C(CNC(=O)c1ccc(F)cc1)N/N=C/c1cccnc1 | -3.97 | 7.31 µM [falling, single point] | 5.17 µM [rising, single point]
O=C(NCCCN1CCCC1=O)c1cc(=O)c2ccccc2o1 | 8.12 | – | 0.411 µM [falling, single point]
O=C(CCC1CCCC1)NCCS(=O)(=O)N1CCN(c2ccccc2)CC1 | – | – | 0.092 µM [falling, full curve, poor fit]
Cc1cccc(CN2C(=O)c3ccccc3Sc3ccc(C(=O)NCCCN4CCOCC4)cc32)c1 | – | 7.31 µM [rising, partial curve] | –
COCCCn1c(SCC(=O)c2ccccc2)nc2ccccc2c1=O | -12.1 | – | –
O=C(CN(C(=O)c1csnn1)c1ccc(F)cc1)NCc1ccc2c(c1)OCO2 | 1.28 | 6.51 µM [rising, single point] | –
Cc1cccc(N)c1-c1c(C)cccc1N | 13.1 | 29.1 µM [rising, single point] | –
Cc1ccc(CC2CC(=O)N(c3ccncc3)C2=O)cc1 (stereo not drawn) | 4.67 | 0.517 µM [falling, full curve, poor fit] | –
COc1ccc(Br)cc1/C=N/n1c(C)nc2ccccc2c1=O | – | 6.51 µM [falling, single point] | –
CC(=O)Nc1ccc(S(=O)(=O)NCC2CCC(C(=O)NCCC3=CCCCC3)CC2)cc1 (stereo not drawn) | – | 0.461 µM [rising, full curve] | –
